Test results: patent publication US20250066478A1
No constants are given. Whether binding was seen depends on the method and setting. Some results given as binding are weak or reduced against the parent protein; the word gives no strength.

Target: anti-CD3 clone UCHT1
Assay: graph of FIG. 3A; method not named in the legend (Octet per paragraph 88)

binding: binds
B1: engineered epitope 1 (peptide)
peptide: CPQYPGSEILWQKWGNKKVCYPRGSKPEDAN
